Source: US20260263417A1, “STRUCTURE-BASED OPTIMIZATION OF S6K2 INHIBITOR CD02 TO TARGET MELANOMA” (THE WISTAR INSTITUTE OF ANATOMY AND BIOLOGY, priority 2023, published 2026)
For at least one compound, name, drawing or mass did not settle the structure.

Assays:
[1] = test system: MAPKi-R NRAS-mutant melanoma cells; type: cell-based; conditions: 50 μM fenofibrate, 7.5 μM DHA, single or combined, 72 h
Protocol: Floating and attached cells were harvested, washed and stained with PSVue 643/PI or Annexin V-FITC/PI. Annexin V staining was performed as described previously (45), with 15 min Annexin V incubation. For PSVue/PI staining, cells were incubated in 3 μM PSVue 643/TES for 10 min at RT, washed in TES buffer and resuspended in PI (5 μg/mL)/TES for 15 min at RT. Cell death (Annexin V^+/PSVue^+ or PI^+) was quantified by FACS (LSRII 18 color analyzer, BD Biosciences) and analyzed using FlowJo software v.10.7.2.

[2] = test system: MAPKi-R and MAPKi-S cells; assay: Fenofibrate dose-response, viability by CellTiter-Glo; type: cell-based, human; conditions: increasing doses, 72 h

Row | SMILES | cell death [1] | sensitivity of MAPKi-R versus MAPKi-S/PPARα-low cells [2]
1 | CC/C=C\C/C=C\C/C=C\C/C=C\C/C=C\C/C=C\CCC(=O)O [DHA, docosahexaenoic acid] | neither FNB nor DHA as single agents induced significant cell death | –
2 | CC(C)OC(=O)C(C)(C)Oc1ccc(C(=O)c2ccc(Cl)cc2)cc1 [FNB, fenofibrate] | did not induce cell death | more sensitive
